# Data as given in the supplement of paper PMC10849652.
# The chains behind the UniProt entries cited, without tags or fusion partners. Where a name states a change or a piece, a line headed by the entry shows the natural chain unless it says otherwise.
# UniProt O94851, whole entry, looked up: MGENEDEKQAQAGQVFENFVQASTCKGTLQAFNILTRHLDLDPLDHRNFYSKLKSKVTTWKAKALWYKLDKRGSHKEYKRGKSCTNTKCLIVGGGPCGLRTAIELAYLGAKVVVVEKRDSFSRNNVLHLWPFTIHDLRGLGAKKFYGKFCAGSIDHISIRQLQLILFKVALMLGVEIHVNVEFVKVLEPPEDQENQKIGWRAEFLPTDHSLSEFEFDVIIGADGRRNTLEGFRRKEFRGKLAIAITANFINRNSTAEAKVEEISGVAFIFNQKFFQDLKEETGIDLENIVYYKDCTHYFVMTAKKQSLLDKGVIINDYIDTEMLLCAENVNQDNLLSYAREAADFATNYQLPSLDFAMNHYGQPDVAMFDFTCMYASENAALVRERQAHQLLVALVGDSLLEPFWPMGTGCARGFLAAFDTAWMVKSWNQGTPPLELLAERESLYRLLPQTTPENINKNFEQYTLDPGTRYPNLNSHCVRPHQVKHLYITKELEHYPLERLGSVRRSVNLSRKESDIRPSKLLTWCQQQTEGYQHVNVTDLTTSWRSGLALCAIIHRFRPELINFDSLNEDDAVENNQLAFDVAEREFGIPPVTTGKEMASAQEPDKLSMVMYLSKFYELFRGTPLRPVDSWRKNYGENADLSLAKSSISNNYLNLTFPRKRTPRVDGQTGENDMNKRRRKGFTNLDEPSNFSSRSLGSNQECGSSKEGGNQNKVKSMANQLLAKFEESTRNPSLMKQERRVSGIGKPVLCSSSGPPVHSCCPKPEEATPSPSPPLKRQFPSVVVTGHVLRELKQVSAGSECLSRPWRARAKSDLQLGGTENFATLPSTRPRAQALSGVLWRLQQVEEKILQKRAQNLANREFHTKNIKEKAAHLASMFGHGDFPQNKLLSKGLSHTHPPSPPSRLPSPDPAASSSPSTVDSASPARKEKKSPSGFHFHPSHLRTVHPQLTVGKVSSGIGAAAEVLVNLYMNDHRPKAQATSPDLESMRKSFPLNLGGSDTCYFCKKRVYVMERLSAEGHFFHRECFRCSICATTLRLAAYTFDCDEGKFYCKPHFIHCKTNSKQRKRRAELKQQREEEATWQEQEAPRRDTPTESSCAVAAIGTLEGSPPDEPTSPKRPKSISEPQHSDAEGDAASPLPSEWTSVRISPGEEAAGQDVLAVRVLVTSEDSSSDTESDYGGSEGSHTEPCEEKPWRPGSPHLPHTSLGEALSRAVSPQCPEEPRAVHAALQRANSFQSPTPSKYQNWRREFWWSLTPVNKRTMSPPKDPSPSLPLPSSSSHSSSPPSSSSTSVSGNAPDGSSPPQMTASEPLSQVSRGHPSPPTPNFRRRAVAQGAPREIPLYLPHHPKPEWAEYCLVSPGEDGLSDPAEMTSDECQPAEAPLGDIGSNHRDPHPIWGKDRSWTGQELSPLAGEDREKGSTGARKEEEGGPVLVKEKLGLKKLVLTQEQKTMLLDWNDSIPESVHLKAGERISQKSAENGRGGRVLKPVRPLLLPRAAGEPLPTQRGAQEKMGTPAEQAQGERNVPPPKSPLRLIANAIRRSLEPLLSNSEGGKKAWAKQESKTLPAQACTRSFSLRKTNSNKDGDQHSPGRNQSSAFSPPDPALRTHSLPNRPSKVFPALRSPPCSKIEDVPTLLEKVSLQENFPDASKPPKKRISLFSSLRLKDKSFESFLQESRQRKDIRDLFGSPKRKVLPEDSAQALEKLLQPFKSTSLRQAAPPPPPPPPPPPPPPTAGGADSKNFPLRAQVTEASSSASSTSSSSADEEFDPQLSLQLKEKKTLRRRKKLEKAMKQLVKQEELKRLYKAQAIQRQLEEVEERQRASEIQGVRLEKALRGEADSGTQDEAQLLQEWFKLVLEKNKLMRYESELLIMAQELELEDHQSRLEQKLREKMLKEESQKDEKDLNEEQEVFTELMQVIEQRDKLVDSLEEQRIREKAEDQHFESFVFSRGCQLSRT
# UniProt Q9NV56, whole entry, looked up: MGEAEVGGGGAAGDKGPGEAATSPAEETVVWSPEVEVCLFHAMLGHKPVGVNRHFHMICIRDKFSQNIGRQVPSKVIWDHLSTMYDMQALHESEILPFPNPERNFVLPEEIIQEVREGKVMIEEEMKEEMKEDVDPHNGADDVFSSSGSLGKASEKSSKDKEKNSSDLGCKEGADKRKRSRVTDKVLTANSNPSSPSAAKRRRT
# UniProt Q09328: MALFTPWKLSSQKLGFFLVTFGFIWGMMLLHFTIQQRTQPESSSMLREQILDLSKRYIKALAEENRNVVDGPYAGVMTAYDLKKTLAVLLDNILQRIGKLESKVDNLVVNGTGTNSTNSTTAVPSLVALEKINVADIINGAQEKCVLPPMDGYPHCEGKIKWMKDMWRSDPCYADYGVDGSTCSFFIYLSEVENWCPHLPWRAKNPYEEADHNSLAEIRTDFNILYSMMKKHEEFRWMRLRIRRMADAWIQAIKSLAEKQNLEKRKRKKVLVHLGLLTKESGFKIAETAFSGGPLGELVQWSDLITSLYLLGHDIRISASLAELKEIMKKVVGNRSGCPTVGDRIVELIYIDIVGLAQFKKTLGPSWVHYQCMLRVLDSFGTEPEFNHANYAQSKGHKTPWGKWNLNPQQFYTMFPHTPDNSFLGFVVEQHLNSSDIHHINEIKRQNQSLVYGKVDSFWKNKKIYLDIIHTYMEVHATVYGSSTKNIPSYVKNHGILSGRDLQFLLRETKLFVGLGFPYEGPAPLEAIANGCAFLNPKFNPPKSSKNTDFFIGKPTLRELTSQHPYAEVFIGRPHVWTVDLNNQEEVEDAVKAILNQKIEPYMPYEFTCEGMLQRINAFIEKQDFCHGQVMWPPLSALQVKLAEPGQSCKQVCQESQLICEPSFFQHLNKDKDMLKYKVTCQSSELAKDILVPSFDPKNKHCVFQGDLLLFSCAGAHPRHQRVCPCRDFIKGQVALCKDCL
# UniProt Q9Y605: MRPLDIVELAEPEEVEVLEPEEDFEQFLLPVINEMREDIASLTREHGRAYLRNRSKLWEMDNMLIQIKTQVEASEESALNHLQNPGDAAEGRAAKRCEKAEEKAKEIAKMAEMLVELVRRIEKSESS
# UniProt Q8IWI9: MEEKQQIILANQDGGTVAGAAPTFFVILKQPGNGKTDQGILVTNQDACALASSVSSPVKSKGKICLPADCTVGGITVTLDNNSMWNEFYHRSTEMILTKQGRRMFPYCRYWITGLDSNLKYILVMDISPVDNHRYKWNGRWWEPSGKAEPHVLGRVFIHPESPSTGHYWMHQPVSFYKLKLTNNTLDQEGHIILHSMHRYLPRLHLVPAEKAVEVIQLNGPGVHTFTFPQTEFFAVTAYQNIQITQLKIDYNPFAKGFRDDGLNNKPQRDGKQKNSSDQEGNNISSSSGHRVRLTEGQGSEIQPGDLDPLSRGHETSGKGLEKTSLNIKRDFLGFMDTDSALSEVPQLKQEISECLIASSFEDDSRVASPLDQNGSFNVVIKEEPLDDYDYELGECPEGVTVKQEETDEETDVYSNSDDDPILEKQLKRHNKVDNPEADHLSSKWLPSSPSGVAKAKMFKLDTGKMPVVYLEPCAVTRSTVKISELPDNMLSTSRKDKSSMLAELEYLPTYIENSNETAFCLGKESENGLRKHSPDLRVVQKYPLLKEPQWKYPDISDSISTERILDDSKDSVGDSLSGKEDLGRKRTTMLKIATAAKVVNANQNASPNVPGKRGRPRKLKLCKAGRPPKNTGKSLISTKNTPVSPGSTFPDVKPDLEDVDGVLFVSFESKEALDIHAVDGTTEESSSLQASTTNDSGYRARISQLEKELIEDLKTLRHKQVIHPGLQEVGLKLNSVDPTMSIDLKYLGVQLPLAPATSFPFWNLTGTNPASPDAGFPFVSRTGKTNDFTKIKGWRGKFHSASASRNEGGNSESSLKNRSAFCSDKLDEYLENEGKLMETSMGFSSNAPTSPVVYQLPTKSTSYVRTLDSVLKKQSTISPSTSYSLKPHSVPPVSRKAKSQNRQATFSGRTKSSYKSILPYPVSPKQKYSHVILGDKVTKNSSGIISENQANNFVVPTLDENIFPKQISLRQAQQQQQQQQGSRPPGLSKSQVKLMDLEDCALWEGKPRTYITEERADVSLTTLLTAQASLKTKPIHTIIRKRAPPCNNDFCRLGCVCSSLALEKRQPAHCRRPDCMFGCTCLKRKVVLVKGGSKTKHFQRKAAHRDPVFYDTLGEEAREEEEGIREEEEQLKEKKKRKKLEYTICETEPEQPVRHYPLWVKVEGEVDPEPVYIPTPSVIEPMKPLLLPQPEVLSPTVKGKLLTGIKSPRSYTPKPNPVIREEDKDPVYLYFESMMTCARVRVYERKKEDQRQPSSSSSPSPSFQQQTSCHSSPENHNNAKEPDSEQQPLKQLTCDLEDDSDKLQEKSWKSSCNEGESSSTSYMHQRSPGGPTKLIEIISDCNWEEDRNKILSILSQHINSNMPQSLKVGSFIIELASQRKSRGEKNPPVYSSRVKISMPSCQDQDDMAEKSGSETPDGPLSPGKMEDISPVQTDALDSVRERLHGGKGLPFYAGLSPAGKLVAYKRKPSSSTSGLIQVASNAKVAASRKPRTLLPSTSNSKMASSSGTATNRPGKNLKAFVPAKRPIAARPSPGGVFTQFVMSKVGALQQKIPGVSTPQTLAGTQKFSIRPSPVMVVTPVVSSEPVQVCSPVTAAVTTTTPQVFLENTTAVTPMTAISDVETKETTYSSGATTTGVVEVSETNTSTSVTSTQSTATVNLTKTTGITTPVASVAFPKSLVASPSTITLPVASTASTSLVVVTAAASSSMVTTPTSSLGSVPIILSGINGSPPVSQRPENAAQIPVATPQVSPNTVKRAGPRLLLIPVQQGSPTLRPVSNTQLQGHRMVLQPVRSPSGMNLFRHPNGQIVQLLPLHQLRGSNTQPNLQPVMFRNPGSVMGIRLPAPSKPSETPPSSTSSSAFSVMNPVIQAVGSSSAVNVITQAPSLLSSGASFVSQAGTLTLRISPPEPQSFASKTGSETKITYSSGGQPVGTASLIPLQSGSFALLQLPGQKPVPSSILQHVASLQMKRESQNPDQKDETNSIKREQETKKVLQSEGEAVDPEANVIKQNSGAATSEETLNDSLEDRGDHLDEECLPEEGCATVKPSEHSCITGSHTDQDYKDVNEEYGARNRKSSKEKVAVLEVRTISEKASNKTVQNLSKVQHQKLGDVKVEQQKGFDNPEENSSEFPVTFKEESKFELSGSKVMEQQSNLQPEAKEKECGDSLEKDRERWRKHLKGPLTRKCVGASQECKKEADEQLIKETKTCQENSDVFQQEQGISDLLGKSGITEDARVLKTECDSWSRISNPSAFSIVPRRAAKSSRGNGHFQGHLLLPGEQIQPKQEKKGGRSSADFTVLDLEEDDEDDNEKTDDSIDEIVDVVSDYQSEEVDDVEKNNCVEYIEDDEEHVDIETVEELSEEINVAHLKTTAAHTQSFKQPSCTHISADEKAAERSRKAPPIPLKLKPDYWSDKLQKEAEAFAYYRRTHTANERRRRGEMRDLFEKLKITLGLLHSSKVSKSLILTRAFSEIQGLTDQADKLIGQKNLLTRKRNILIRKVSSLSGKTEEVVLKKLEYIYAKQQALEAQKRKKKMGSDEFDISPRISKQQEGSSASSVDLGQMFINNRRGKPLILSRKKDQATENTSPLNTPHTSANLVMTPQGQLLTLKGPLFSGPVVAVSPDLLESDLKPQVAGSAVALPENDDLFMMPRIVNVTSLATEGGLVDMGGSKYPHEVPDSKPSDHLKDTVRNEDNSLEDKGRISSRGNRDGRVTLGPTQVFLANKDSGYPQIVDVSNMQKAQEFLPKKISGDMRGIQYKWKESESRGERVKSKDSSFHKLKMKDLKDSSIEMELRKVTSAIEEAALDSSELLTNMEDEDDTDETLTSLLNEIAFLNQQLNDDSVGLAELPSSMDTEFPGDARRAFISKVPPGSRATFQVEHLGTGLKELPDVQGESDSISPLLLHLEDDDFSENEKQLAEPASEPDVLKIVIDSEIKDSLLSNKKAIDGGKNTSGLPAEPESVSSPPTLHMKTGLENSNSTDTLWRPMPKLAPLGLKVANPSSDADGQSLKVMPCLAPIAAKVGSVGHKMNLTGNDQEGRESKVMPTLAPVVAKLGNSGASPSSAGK
# UniProt Q9UHC7: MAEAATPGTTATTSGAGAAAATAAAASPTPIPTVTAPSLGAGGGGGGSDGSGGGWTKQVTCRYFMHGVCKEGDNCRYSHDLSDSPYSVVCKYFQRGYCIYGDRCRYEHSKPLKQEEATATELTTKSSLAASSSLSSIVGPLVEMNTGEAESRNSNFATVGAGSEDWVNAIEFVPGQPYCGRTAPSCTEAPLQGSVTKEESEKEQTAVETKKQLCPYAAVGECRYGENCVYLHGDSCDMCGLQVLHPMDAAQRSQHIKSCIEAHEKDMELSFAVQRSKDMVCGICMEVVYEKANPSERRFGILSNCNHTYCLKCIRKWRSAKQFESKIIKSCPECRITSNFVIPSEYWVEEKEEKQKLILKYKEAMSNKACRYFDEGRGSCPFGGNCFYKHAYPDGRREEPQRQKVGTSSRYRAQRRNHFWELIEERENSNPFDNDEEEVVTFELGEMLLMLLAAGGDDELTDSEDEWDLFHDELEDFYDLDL
# The other results are listed elsewhere or left out.
# Key:
# Assay in all cases: log2 fold change, soluble protein after heating vs DMSO (PISA); higher = thermal stabilisation; K562 lysate, 10 uM; active = over 0.2 and 3.5 SD of the protein, either way, in both replicates (recomputed)
# [1] = compound: CS(=O)(=O)CCNCc1ccc(-c2ccc3ncnc(Nc4ccc(OCc5cccc(F)c5)c(Cl)c4)c3c2)o1 [lapatinib]
# Outline: (§1)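 A 30 min treatment with 10 μM compound was applied to crude K562 extract at 1 mg/mL protein in PBS pH 7.4 with 1 mM MgCl2. Heating for 3 min spanned 48°C-58°C, after which aliquots were pooled, adjusted to 0.5% NP-40 at 4°C and spun at 21,000xg for 90 min. TMTpro 16plex LC-MS/MS of the supernatant, with channel sums equalised, gave values recorded as log-two fold change in thermal stability against solvent controls, from duplicates.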
# [2] = compound: CS(=O)(=O)N1CCN(Cc2cc3nc(-c4cccc5[nH]ncc45)nc(N4CCOCC4)c3s2)CC1 [pictilisib]
# Outline: as §1
# [3] = compound: C[C@@H](Oc1cc(-c2cnn(C3CCNCC3)c2)cnc1N)c1c(Cl)ccc(F)c1Cl [crizotinib]
# Outline: as §1
# [4] = compound: C[C@H](C1=CC=C(C=C1)C(=O)NC2=C3C=CNC3=NC=C2)N
# Outline: as §1
# [5] = compound: C[C@H](Nc1ncnc2nc[nH]c12)c1cc2cccc(Cl)c2c(=O)n1-c1ccccc1 [duvelisib]
# Outline: as §1
# [6] = compound: Cc1cc(Nc2cc(CN3CCOCC3)c3nc(C)c(Cc4ccc(Cl)cc4F)n3n2)n[nH]1 [gandotinib]
# Outline: as §1
# [7] = compound: Cc1cc(Nc2cc(N3CCN(C)CC3)nc(Sc3ccc(NC(=O)C4CC4)cc3)n2)n[nH]1 [tozasertib]
# Outline: as §1
# [8] = compound: Cc1ccc(-n2nc(C(C)(C)C)cc2NC(=O)Nc2ccc(OCCN3CCOCC3)c3ccccc23)cc1 [doramapimod]
# Outline: as §1
# [9] = compound: Cc1ccc(NC(=O)c2ccc(CN3CC[C@H](N(C)C)C3)c(C(F)(F)F)c2)cc1Nc1nccc(-c2cncnc2)n1 [bafetinib]
# Outline: as §1
# [10] = compound: Cc1cccc(CC(=O)N2CCc3c2ccc(-c2cn(C)c4ncnc(N)c24)c3F)n1
# Outline: as §1
Target,log2 fold change [1],log2 fold change [2],log2 fold change [3],log2 fold change [4],log2 fold change [5],log2 fold change [6],log2 fold change [7],log2 fold change [8],log2 fold change [9],log2 fold change [10]
MICAL1 isoform 4 (UniProt Q8TDZ2),inactive: 0.048,inactive: -0.036,inactive: -0.063,inactive: 0.025,inactive: 0.031,inactive: -0.035,inactive: 0.024,inactive: -0.014,inactive: -0.019,inactive: 0.018
MPRIP isoform 2 (UniProt Q6WCQ1),inactive: -0.069,inactive: -0.034,inactive: 0.027,inactive: 0.01,inactive: -0.008,inactive: -0.018,inactive: -0.052,inactive: 0.026,inactive: -0.046,inactive: -0.014
MRM1 (UniProt Q6IN84),inactive: -0.112,inactive: -0.002,inactive: -0.022,inactive: 0.007,inactive: 0.012,inactive: -0.019,inactive: 0,inactive: 0.016,inactive: -0.002,inactive: 0.048
MLLT11 (UniProt Q13015),inactive: 0.051,inactive: 0.237,inactive: 0,inactive: 0.025,inactive: 0.002,inactive: 0.329,inactive: 0.087,active: 0.447,inactive: -0.017,inactive: 0.084
MRM3 (UniProt Q9HC36),inactive: 0.017,inactive: -0.042,inactive: 0.009,inactive: 0.103,inactive: 0.011,inactive: 0.045,inactive: 0.005,inactive: -0.02,inactive: -0.028,inactive: 0.074
MICAL2 (UniProt O94851),inactive: -0.355,inactive: -0.116,inactive: -0.04,inactive: 0.005,inactive: 0.039,inactive: 0.022,–,inactive: 0.067,inactive: -0.75,inactive: 0.126
MRGBP (UniProt Q9NV56),inactive: -0.042,inactive: 0.026,inactive: 0.062,inactive: -0.05,inactive: 0.022,inactive: 0.024,inactive: -0.143,inactive: -0.034,inactive: -0.036,inactive: 0.048
MKLN1 (UniProt Q9UL63),inactive: 0.01,inactive: 0.003,inactive: -0.031,inactive: 0.01,inactive: -0.012,inactive: 0.02,inactive: -0.016,inactive: -0.017,inactive: 0.031,inactive: -0.022
MICAL3 (UniProt Q7RTP6),inactive: 0.006,inactive: -0.015,inactive: 0.001,inactive: -0.058,inactive: 0,inactive: 0.033,inactive: -0.024,inactive: -0.007,inactive: -0.03,inactive: 0.027
MKRN3 (UniProt Q13064),inactive: -0.095,inactive: -0.111,inactive: -0.064,inactive: 0.015,inactive: -0.126,inactive: -0.006,–,inactive: -0.037,inactive: 0.019,inactive: -0.033
MMADHC (UniProt Q9H3L0),inactive: -0.024,inactive: 0.017,inactive: 0.012,inactive: -0.029,inactive: -0.029,inactive: -0.026,inactive: 0.009,inactive: -0.007,inactive: -0.049,inactive: 0.012
MITD1 (UniProt Q8WV92),inactive: 0.003,inactive: -0.032,inactive: 0.046,inactive: 0.086,inactive: 0.055,inactive: 0.025,inactive: -0.015,inactive: -0.049,inactive: -0.118,inactive: -0.085
MRPL17 (UniProt Q9NRX2),inactive: 0.016,inactive: -0.022,inactive: -0.011,inactive: 0.001,inactive: -0.02,inactive: -0.039,inactive: 0.05,inactive: 0.041,inactive: 0.018,inactive: -0.013
MRPL14 (UniProt Q6P1L8),inactive: 0.033,inactive: -0.02,inactive: -0.028,inactive: -0.012,inactive: 0.024,inactive: -0.034,inactive: 0.016,inactive: 0.001,inactive: -0.009,inactive: 0.116
MRPL11 (UniProt Q9Y3B7),inactive: -0.018,inactive: -0.012,inactive: -0.029,inactive: 0.005,inactive: 0.036,inactive: 0.013,inactive: 0.004,inactive: 0.014,inactive: -0.083,inactive: -0.018
MORC2 (UniProt Q9Y6X9),inactive: 0.016,inactive: 0.015,inactive: -0.012,inactive: -0.049,inactive: 0.04,inactive: -0.032,inactive: 0.008,inactive: 0.012,inactive: -0.032,inactive: 0.043
MGAT5 (UniProt Q09328),inactive: 0.022,inactive: 0.066,inactive: -0.051,inactive: 0.098,inactive: 0.018,inactive: -0.106,inactive: -0.037,inactive: 0.023,inactive: 0.079,inactive: -0.112
MGRN1 isoform 2 (UniProt O60291),inactive: -0.013,inactive: 0.19,inactive: 0.108,inactive: 0.008,inactive: 0.054,inactive: 0.09,inactive: -0.066,inactive: -0.092,inactive: -0.104,inactive: -0.072
MRFAP1 (UniProt Q9Y605),inactive: -0.052,inactive: 0.016,inactive: 0.032,inactive: -0.038,inactive: -0.01,inactive: 0,inactive: 0.043,inactive: -0.041,inactive: 0.016,inactive: -0.16
MOSPD2 (UniProt Q8NHP6),inactive: 0.01,inactive: -0.036,inactive: -0.041,inactive: -0.076,inactive: -0.02,inactive: 0.003,inactive: 0.021,inactive: 0.022,inactive: -0.009,inactive: 0.1
MIB1 (UniProt Q86YT6),inactive: -0.031,inactive: -0.034,inactive: -0.014,inactive: -0.096,inactive: 0.053,inactive: -0.057,inactive: 0.001,inactive: 0.02,inactive: 0.051,inactive: -0.021
MINPP1 (UniProt Q9UNW1),inactive: 0,inactive: 0.018,inactive: 0.055,inactive: -0.003,inactive: 0,inactive: 0.013,inactive: -0.007,inactive: -0.009,inactive: 0.03,inactive: -0.01
MOB2 isoform 3 (UniProt Q70IA6),inactive: 0.025,inactive: 0.06,inactive: -0.019,inactive: 0.055,inactive: -0.024,inactive: -0.127,inactive: -0.009,inactive: 0.013,inactive: 0.047,inactive: -0.019
MGA (UniProt Q8IWI9),inactive: -0.096,inactive: 0.017,inactive: -0.053,inactive: -0.066,inactive: 0.057,inactive: 0.042,inactive: -0.038,inactive: 0.03,inactive: -0.318,inactive: -0.002
MKRN1 (UniProt Q9UHC7),inactive: -0.025,inactive: 0.017,inactive: -0.016,inactive: -0.035,inactive: 0.024,inactive: -0.023,inactive: -0.027,inactive: 0.04,inactive: -0.043,inactive: 0.014
MOV10 (UniProt Q9HCE1),inactive: -0.01,inactive: -0.011,inactive: -0.012,inactive: -0.005,inactive: 0.001,inactive: 0.005,inactive: -0.03,inactive: 0.006,inactive: -0.033,inactive: 0.009
MRAS (UniProt O14807),inactive: -0.099,inactive: 0.008,inactive: 0.038,inactive: 0.126,inactive: 0.141,inactive: -0.16,inactive: -0.048,inactive: 0.004,inactive: 0.034,inactive: -0.187

# As a short view, some entries already given.
Target,log2 fold change [1],log2 fold change [2],log2 fold change [3],log2 fold change [4],log2 fold change [5],log2 fold change [6],log2 fold change [7],log2 fold change [8],log2 fold change [9],log2 fold change [10]
MKRN1 (UniProt Q9UHC7),inactive: -0.025,inactive: 0.017,inactive: -0.016,inactive: -0.035,inactive: 0.024,inactive: -0.023,inactive: -0.027,inactive: 0.04,inactive: -0.043,inactive: 0.014
MOV10 (UniProt Q9HCE1),inactive: -0.01,inactive: -0.011,inactive: -0.012,inactive: -0.005,inactive: 0.001,inactive: 0.005,inactive: -0.03,inactive: 0.006,inactive: -0.033,inactive: 0.009
